Results are given in words; binding and its absence hold for the method and conditions named. Binding seen in cells or lysates may run through a third protein. These calls come from enrichment with a bait or labelling near it, and not all partners need be listed.

The chains behind the UniProt entries cited, without tags or fusion partners. Residues count along the entry.
UniProt P21127: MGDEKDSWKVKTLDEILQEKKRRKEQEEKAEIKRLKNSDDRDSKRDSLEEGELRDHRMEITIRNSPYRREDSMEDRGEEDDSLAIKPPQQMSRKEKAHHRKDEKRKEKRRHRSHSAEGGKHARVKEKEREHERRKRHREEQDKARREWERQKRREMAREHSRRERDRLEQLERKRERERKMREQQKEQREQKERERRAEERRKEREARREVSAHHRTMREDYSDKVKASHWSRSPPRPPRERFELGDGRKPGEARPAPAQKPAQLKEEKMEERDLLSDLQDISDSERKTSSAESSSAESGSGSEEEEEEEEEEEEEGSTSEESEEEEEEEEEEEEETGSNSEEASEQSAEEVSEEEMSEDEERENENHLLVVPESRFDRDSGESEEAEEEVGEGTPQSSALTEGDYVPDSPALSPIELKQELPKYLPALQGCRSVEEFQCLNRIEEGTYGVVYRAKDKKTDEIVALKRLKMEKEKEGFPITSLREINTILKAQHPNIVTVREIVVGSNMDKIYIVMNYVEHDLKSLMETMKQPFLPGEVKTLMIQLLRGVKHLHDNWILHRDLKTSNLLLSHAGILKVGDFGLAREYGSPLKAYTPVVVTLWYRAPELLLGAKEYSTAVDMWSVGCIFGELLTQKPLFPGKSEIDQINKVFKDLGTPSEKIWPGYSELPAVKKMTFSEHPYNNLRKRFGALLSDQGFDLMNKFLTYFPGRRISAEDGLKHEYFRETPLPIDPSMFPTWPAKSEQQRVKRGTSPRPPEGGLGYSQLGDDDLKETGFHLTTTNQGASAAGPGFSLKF
UniProt P38646, residues 47-679: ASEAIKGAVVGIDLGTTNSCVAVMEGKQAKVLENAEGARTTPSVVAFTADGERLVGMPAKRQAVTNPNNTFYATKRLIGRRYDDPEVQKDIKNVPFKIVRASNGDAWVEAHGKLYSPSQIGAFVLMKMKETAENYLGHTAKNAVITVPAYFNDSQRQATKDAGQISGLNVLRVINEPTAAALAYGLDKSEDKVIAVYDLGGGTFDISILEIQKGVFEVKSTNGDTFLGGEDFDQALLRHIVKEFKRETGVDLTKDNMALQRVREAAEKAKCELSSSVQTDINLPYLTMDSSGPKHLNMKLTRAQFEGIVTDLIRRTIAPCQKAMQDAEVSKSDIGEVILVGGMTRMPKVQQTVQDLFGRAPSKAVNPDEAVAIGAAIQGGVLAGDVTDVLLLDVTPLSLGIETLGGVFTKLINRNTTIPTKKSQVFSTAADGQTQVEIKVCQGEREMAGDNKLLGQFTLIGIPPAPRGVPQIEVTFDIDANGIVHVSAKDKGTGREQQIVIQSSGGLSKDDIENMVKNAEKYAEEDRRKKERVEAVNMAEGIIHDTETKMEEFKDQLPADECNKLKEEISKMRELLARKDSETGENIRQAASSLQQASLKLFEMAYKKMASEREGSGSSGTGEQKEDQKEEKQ
UniProt P38159: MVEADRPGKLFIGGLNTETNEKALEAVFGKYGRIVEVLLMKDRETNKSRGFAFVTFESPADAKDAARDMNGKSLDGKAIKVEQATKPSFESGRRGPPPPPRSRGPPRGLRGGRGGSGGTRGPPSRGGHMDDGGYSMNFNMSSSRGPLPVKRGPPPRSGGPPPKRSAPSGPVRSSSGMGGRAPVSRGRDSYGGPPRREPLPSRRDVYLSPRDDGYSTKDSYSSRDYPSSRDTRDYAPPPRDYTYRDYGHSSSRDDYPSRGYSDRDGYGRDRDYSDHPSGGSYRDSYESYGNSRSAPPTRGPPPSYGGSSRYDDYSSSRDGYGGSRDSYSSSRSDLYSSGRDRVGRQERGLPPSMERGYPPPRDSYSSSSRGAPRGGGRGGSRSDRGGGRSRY
UniProt P35250: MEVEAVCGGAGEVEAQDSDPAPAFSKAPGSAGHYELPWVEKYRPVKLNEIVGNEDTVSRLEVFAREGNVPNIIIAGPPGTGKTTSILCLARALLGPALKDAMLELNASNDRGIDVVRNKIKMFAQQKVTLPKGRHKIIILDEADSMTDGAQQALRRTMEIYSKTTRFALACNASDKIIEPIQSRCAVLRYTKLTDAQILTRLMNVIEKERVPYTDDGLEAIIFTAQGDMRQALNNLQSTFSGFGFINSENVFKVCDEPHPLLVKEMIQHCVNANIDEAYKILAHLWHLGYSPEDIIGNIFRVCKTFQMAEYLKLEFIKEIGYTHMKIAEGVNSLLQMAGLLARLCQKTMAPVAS
UniProt P35249: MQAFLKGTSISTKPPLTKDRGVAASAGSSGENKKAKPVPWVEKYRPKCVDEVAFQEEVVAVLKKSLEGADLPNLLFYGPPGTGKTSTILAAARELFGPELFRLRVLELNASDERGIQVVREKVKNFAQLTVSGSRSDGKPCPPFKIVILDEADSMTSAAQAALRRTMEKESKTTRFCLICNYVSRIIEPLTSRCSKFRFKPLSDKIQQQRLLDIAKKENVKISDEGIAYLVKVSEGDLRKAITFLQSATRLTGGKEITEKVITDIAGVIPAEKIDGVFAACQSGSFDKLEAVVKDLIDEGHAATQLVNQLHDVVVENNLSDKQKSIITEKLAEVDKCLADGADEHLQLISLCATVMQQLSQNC
UniProt O75494: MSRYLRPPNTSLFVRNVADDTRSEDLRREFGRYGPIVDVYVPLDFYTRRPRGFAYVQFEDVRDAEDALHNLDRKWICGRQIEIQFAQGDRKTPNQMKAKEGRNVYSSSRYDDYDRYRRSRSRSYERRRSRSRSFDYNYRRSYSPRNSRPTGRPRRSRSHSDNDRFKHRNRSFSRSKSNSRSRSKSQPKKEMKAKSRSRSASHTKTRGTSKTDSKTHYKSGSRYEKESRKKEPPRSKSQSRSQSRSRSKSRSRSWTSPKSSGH
UniProt P62995: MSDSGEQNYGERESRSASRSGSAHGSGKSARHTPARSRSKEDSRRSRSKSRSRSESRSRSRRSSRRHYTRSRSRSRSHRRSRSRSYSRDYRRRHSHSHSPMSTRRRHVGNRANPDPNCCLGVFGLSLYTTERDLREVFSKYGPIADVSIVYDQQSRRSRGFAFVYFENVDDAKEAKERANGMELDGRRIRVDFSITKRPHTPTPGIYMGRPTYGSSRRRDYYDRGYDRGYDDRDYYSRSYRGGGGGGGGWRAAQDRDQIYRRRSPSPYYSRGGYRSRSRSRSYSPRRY

In assay [1] the target is NS1-T585E-GFP (rat parvovirus H1 (H1-PV)) (UniProt P03133). The assay is described as follows: affinity purification with mass spectrometry.
Assay [2] concerns the target NS1-T585E-BioID2-HA (rat parvovirus H1 (H1-PV)) (UniProt P03133). As to the kind of experiment: proximity labelling.

Consider CDK11B (from UniProt P21127 1-795), for which, in assay [1], the binding result is on record as “binds”.
In the case of HSPA9 (from UniProt P38646 47-679), the binding entry in assay [2] and in assay [1] was “binds” throughout.
RBMX (from UniProt P38159 1-391): the binding result in assay [2] and in assay [1] was “binds” throughout.
On to RFC2 (from UniProt P35250 1-354), for which the binding entry in assay [2] and in assay [1] was “binds” in each case.
For RFC4 (from UniProt P35249 1-363), the binding result in assay [2] and in assay [1] was “binds” throughout.
For the molecule SRSF10 (from UniProt O75494 1-262), the binding entry in assay [1] is reported as “binds”.
TRA2B (from UniProt P62995 1-288): the binding entry in assay [2] and in assay [1] was “binds” throughout.

B1: PRIM2 (protein, UniProt P49643 1-509)
chain: MEFSGRKWRKLRLAGDQRNASYPHCLQFYLQPPSENISLIEFENLAIDRVKLLKSVENLGVSYVKGTEQYQSKLESELRKLKFSYRENLEDEYEPRRRDHISHFILRLAYCQSEELRRWFIQQEMDLLRFRFSILPKDKIQDFLKDSQLQFEAISDEEKTLREQEIVASSPSLSGLKLGFESIYKIPFADALDLFRGRKVYLEDGFAYVPLKDIVAIILNEFRAKLSKALALTARSLPAVQSDERLQPLLNHLSHSYTGQDYSTQGNVGKISLDQIDLLSTKSFPPCMRQLHKALRENHHLRHGGRMQYGLFLKGIGLTLEQALQFWKQEFIKGKMDPDKFDKGYSYNIRHSFGKEGKRTDYTPFSCLKIILSNPPSQGDYHGCPFRHSDPELLKQKLQSYKISPGGISQILDLVKGTHYQVACQKYFEMIHNVDDCGFSLNHPNQFFCESQRILNGGKDIKKEPIQPETPQPKPSVQKTKDASSALASLNSSLEMDMEGLEDYFSEDS
On to B1, for which the binding result in assay [1] is given as “binds”.

B2: PRDX1 (protein, UniProt Q06830 1-199)
chain: MSSGNAKIGHPAPNFKATAVMPDGQFKDISLSDYKGKYVVFFFYPLDFTFVCPTEIIAFSDRAEEFKKLNCQVIGASVDSHFCHLAWVNTPKKQGGLGPMNIPLVSDPKRTIAQDYGVLKADEGISFRGLFIIDDKGILRQITVNDLPVGRSVDETLRLVQAFQFTDKHGEVCPAGWKPGSDTIKPDVQKSKEYFSKQK
For B2, the binding entry in assay [2] and in assay [1] was “binds” in each case.

B3: RFC1 (protein, UniProt P35251 1-1148)
chain: MDIRKFFGVIPSGKKLVSETVKKNEKTKSDEETLKAKKGIKEIKVNSSRKEDDFKQKQPSKKKRIIYDSDSESEETLQVKNAKKPPEKLPVSSKPGKISRQDPVTYISETDEEDDFMCKKAASKSKENGRSTNSHLGTSNMKKNEENTKTKNKPLSPIKLTPTSVLDYFGTGSVQRSNKKMVASKRKELSQNTDESGLNDEAIAKQLQLDEDAELERQLHEDEEFARTLAMLDEEPKTKKARKDTEAGETFSSVQANLSKAEKHKYPHKVKTAQVSDERKSYSPRKQSKYESSKESQQHSKSSADKIGEVSSPKASSKLAIMKRKEESSYKEIEPVASKRKENAIKLKGETKTPKKTKSSPAKKESVSPEDSEKKRTNYQAYRSYLNREGPKALGSKEIPKGAENCLEGLIFVITGVLESIERDEAKSLIERYGGKVTGNVSKKTNYLVMGRDSGQSKSDKAAALGTKIIDEDGLLNLIRTMPGKKSKYEIAVETEMKKESKLERTPQKNVQGKRKISPSKKESESKKSRPTSKRDSLAKTIKKETDVFWKSLDFKEQVAEETSGDSKARNLADDSSENKVENLLWVDKYKPTSLKTIIGQQGDQSCANKLLRWLRNWQKSSSEDKKHAAKFGKFSGKDDGSSFKAALLSGPPGVGKTTTASLVCQELGYSYVELNASDTRSKSSLKAIVAESLNNTSIKGFYSNGAASSVSTKHALIMDEVDGMAGNEDRGGIQELIGLIKHTKIPIICMCNDRNHPKIRSLVHYCFDLRFQRPRVEQIKGAMMSIAFKEGLKIPPPAMNEIILGANQDIRQVLHNLSMWCARSKALTYDQAKADSHRAKKDIKMGPFDVARKVFAAGEETAHMSLVDKSDLFFHDYSIAPLFVQENYIHVKPVAAGGDMKKHLMLLSRAADSICDGDLVDSQIRSKQNWSLLPAQAIYASVLPGELMRGYMTQFPTFPSWLGKHSSTGKHDRIVQDLALHMSLRTYSSKRTVNMDYLSLLRDALVQPLTSQGVDGVQDVVALMDTYYLMKEDFENIMEISSWGGKPSPFSKLDPKVKAAFTRAYNKEAHLTPYSLQAIKASRHSTSPSLDSEYNEELNEDDSQSDEKDQDAIETDAMIKKKTKSSKPSKPEKDKEPRKGKGKSSKK
In the case of B3, in assay [1], the binding result is reported as “binds”.

B4: RNPS1 (protein, UniProt Q15287 1-305)
chain: MDLSGVKKKSLLGVKENNKKSSTRAPSPTKRKDRSDEKSKDRSKDKGATKESSEKDRGRDKTRKRRSASSGSSSTRSRSSSTSSSGSSTSTGSSSGSSSSSASSRSGSSSTSRSSSSSSSSGSPSPSRRRHDNRRRSRSKSKPPKRDEKERKRRSPSPKPTKVHIGRLTRNVTKDHIMEIFSTYGKIKMIDMPVERMHPHLSKGYAYVEFENPDEAEKALKHMDGGQIDGQEITATAVLAPWPRPPPRRFSPPRRMLPPPPMWRRSPPRMRRRSRSPRRRSPVRRRSRSPGRRRHRSRSSSNSSR
In the case of B4, the binding result in assay [2] and in assay [1] was “binds” each time.

B5: BANF1 (protein, UniProt O75531 1-89)
chain: MTTSQKHRDFVAEPMGEKPVGSLAGIGEVLGKKLEERGFDKAYVVLGQFLVLKKDEDLFREWLKDTCGANAKQSRDCFGCLREWCDAFL
B5: the binding entry in assay [2] and in assay [1] was “binds” throughout.

For the origin of these results see PMC9866090.
